PubChem BioAssay AID720703 – Peter MacCallum Cancer Centre – 2013

Screen: 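Kinase knock-down screen for links between AT1R and EGFR signalling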 (primary screen)
Cell system: immortalised, SV40-transformed mammary epithelial cells from human, with stable expression of tagged AT1R
Reagents: siRNA pool against human genes, 40 nM siRNA pool per well
Time to read-out: 72 h from transfection to lysis and read-out
Challenge: angiotensin II stimulation (dose and duration not given); EGFR inhibitor AG1478 also listed
Detection: 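ERK1/2 phosphorylation corrected for confluency, given as a robust z-score, mean over two replicate plates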
Scale: phospho-ERK z-score: higher = more ERK phosphorylation after angiotensin II, relative to plate
Active means: 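Pools were ordered by robust z-score and 50 top-ranked pools, whether they raised or lowered the signal, were chosen for secondary testing; no numeric threshold was reported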
Calls: active = picked for secondary screen; inactive = not picked
The deposit covers 714 reagents; shown is an unselected part. 50 of them (7%) count as active. 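Chosen pools sit at both extremes, so both low and high scores count as candidates; some pools appear more than once.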 A number with no mark means an inactive call. Reagent sequences are not shown.

After knock-down of RIOK3 (RIO kinase 3), the record shows phospho-ERK z-score, replicate mean -0.48.
Depletion of CALM3 (calmodulin 3) resulted in: phospho-ERK z-score, replicate mean 0.08.
STYK1 (STY kinase 1) showed phospho-ERK z-score, replicate mean -1.66 (active).
PDK3 (pyruvate dehydrogenase kinase 3) scored phospho-ERK z-score, replicate mean 0.37.
For CKS1B (CDC28 protein kinase regulatory subunit 1B), the values are phospho-ERK z-score, replicate mean 0.17.
After knock-down of DTYMK (deoxythymidylate kinase), the screen gave phospho-ERK z-score, replicate mean 1.48.
Against PRKAG1 (protein kinase AMP-activated non-catalytic subunit gamma 1) the deposit lists phospho-ERK z-score, replicate mean -0.23.
With knock-down of NME7 (NME/NM23 family member 7), the record shows phospho-ERK z-score, replicate mean -0.29.
Against STK3 (serine/threonine kinase 3) the deposit lists phospho-ERK z-score, replicate mean -0.94.
After knock-down of MET (MET proto-oncogene, receptor tyrosine kinase), the screen gave phospho-ERK z-score, replicate mean 0.58.
Depletion of EPHA5 (EPH receptor A5) came out at: phospho-ERK z-score, replicate mean -0.38.
CAMK2D (calcium/calmodulin dependent protein kinase II delta) gave phospho-ERK z-score, replicate mean -0.52.
After knock-down of ERN2 (endoplasmic reticulum to nucleus signaling 2) the results were phospho-ERK z-score, replicate mean -0.42.
INSR (insulin receptor) showed phospho-ERK z-score, replicate mean 1.68.
For GRK2 (G protein-coupled receptor kinase 2), the values are phospho-ERK z-score, replicate mean 1.09.
Against CDKN1A (cyclin dependent kinase inhibitor 1A), the values are phospho-ERK z-score, replicate mean -1.12.
NEK1 (NIMA related kinase 1) scored phospho-ERK z-score, replicate mean 1.55.
FYN (FYN proto-oncogene, Src family tyrosine kinase) scored phospho-ERK z-score, replicate mean 0.05.
For PIK3R4 (phosphoinositide-3-kinase regulatory subunit 4), the values are phospho-ERK z-score, replicate mean -0.27.
CPNE3 (copine 3) gave phospho-ERK z-score, replicate mean 0.43.
Silencing of CHUK resulted in: phospho-ERK z-score, replicate mean 0.73.
With knock-down of NEK5 (NIMA related kinase 5) the results were phospho-ERK z-score, replicate mean -0.68.
Knock-down of PRP4K (pre-mRNA processing factor kinase PRP4K) resulted in: phospho-ERK z-score, replicate mean 0.13.
With knock-down of MINK1 (misshapen like kinase 1), the record shows phospho-ERK z-score, replicate mean 0.32.
PAK3 (p21 (RAC1) activated kinase 3) gave phospho-ERK z-score, replicate mean 0.81.
After knock-down of VRK1 (VRK serine/threonine kinase 1) the results were phospho-ERK z-score, replicate mean -0.64.
MST1R (macrophage stimulating 1 receptor) showed phospho-ERK z-score, replicate mean 1.79.
Silencing of MASTL (microtubule associated serine/threonine kinase like) came out at: phospho-ERK z-score, replicate mean 1.58.
PFKFB3 (6-phosphofructo-2-kinase/fructose-2,6-biphosphatase 3) showed phospho-ERK z-score, replicate mean -0.44.
With knock-down of ABL2 (ABL proto-oncogene 2, non-receptor tyrosine kinase), the record shows phospho-ERK z-score, replicate mean 1.45.
Silencing of PACSIN1 (protein kinase C and casein kinase substrate in neurons 1) came out at: phospho-ERK z-score, replicate mean 0.66.
SCYL1 (SCY1 like pseudokinase 1) gave phospho-ERK z-score, replicate mean 0.58.
TRPM6 scored phospho-ERK z-score, replicate mean 0.65.
Knock-down of NIM1K (NIM1 serine/threonine protein kinase) came out at: phospho-ERK z-score, replicate mean -0.66.
Silencing of ADCK1 (aarF domain containing kinase 1) came out at: phospho-ERK z-score, replicate mean -0.25.
With knock-down of PHKG1 (phosphorylase kinase catalytic subunit gamma 1), the record shows phospho-ERK z-score, replicate mean 0.64.
For MAP2K5 (mitogen-activated protein kinase kinase 5) the deposit lists phospho-ERK z-score, replicate mean 2.
Against ITPKA (inositol-trisphosphate 3-kinase A) the deposit lists phospho-ERK z-score, replicate mean -0.49.
MAP3K5 (mitogen-activated protein kinase kinase kinase 5) gave phospho-ERK z-score, replicate mean 0.8.
With knock-down of PDK1 (pyruvate dehydrogenase kinase 1) the results were phospho-ERK z-score, replicate mean 0.38.
NEK4 (NIMA related kinase 4) gave phospho-ERK z-score, replicate mean 1.17.
Depletion of VRK2 (VRK serine/threonine kinase 2) came out at: phospho-ERK z-score, replicate mean 0.78.
Against MAPKAPK2 (MAPK activated protein kinase 2), the values are phospho-ERK z-score, replicate mean 0.04.
With knock-down of DGKK (diacylglycerol kinase kappa), the record shows phospho-ERK z-score, replicate mean -0.2.
For MAPK1 (mitogen-activated protein kinase 1), the entry reads phospho-ERK z-score, replicate mean 3.21 (active).
TPD52L3 (TPD52 like 3) showed phospho-ERK z-score, replicate mean 0.2.
ROS1 (ROS proto-oncogene 1, receptor tyrosine kinase) showed phospho-ERK z-score, replicate mean -0.23.

Part of the list above, reformatted.
{"Gene":"MST1R (macrophage stimulating 1 receptor)","phospho-ERK z-score, replicate mean":1.79}
{"Gene":"MASTL (microtubule associated serine/threonine kinase like)","phospho-ERK z-score, replicate mean":1.58}
{"Gene":"PFKFB3 (6-phosphofructo-2-kinase/fructose-2,6-biphosphatase 3)","phospho-ERK z-score, replicate mean":-0.44}
{"Gene":"ABL2 (ABL proto-oncogene 2, non-receptor tyrosine kinase)","phospho-ERK z-score, replicate mean":1.45}
